Assay results as given in the supplement of paper PMC8256030.
Where “and” joins values, the source holds several entries; their conditions need not be identical. Identical values can stand only once. The list shows a part of the results. Repeats in this data set agree poorly, so a single value says little.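 HEK293T cells were given each compound shortly before transfection with a reporter in which red mCherry is followed by the SARS-CoV-2 frameshift element and then GFP in the −1 frame, so GFP appears only after frameshifting.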

What follows are compounds tested on SARS-CoV-2 -1 PRF reporter mCherry-FSE-GFP(-1) (assay: mCherry (red) intensity as percent of control; higher = higher upstream reporter expression). Conditions: 10 µM; 24 h; HEK293T.

| SMILES | mCherry |
| --- | --- |
| Clc1ccc(CO/N=C(\Cn2ccnc2)c2ccc(Cl)cc2Cl)c(Cl)c1 | 137% |
| O=C1N(c2ccccc2)c2ccccc2C1(Cc1ccncc1)Cc1ccncc1 [linopirdine] | 97.9% |
| C=COCC(F)(F)F [fluroxene] | 105% |
| NCCCC(O)(P(=O)(O)O)P(=O)(O)O | 80.9% |
| COc1cc([C@@H]2c3cc4c(cc3[C@@H](O[C@@H]3O[C@@H]5CO[C@@H](c6cccs6)O[C@H]5[C@H](O)[C@H]3O)[C@H]3COC(=O)[C@H]23)OCO4)cc(OC)c1O | 24.4% |
| C[C@]12CC[C@H]3[C@@H](CCC4=CC(=O)CC[C@@]43C)[C@@H]1CC[C@@H]2C(=O)CO [desoxycortone] | 76.3% |
| Cc1cc(/C=C/C#N)cc(C)c1Nc1ccnc(Nc2ccc(C#N)cc2)n1 [rilpivirine] | 68.4% |
| C[n+]1cc2c3c(ccc2c2ccc4cc5c(cc4c21)OCO5)OCO3 | 16.7% |
| CN(CCCCCCCCCCN(C)C(=O)Oc1cccc([N+](C)(C)C)c1)C(=O)Oc1cccc([N+](C)(C)C)c1 [Humorsol] | 98% |
| NCCNC(=O)c1ccc(Cl)cn1 [lazabemide] | 89.8% |
| CC(=O)OCC(COC(C)=O)OC(C)=O [triacetin] | 113% |
| C[C@]12CCC(=O)C=C1C=C[C@@H]1[C@@H]2CC[C@@]2(C)[C@H]1CC[C@@]21CCC(=O)O1 [canrenone] | 94.2% |
| CC1=C(/C=C/C(C)=C/C=C/C(C)=C/C=C/C=C(C)/C=C/C=C(C)/C=C/C2=C(C)C(=O)CCC2(C)C)C(C)(C)CCC1=O [Canthaxanthin] | 78.7% |
| CC[C@H](C)[C@H](NC(=O)[C@H](Cc1ccccc1)NC(=O)[C@H](C)NC(=O)[C@H](CC(=O)O)NC(=O)[C@H](CCCCN)NC(=O)[C@H](CO)NC(=O)[C@@H]1CCCN1C(=O)[C@@H]1CCC(=O)N1)C(=O)NCC(=O)N[C@@H](CC(C)C)C(=O)N[C@@H](CCSC)C(N)=O [eledoisin] | 118% |
| NC(=O)[C@@H]1CCCN1C(=O)[C@H](Cc1c[nH]cn1)NC(=O)[C@@H]1CCC(=O)N1 [protirelin] | 58.5% |
| CCCCC1(COC(=O)CCC(=O)O)C(=O)N(c2ccccc2)N(c2ccccc2)C1=O [suxibuzone] | 102% |
| OC(c1cc(C(F)(F)F)nc2c(C(F)(F)F)cccc12)C1CCCCN1 (stereo not given) [mefloquine] | 114% |
| NC(=O)c1ccc([N+](=O)[O-])cc1Cl [aklomide] | 121% |
| C#Cc1cccc(Nc2ncnc3cc(OCCOC)c(OCCOC)cc23)c1 [erlotinib] | 45.5% |
| Oc1ccc(Cl)c2c1CCC2 [clorindanol] | 108% |

| SMILES | mCherry |
| --- | --- |
| CC[N+](C)(C)Cc1ccccc1Br [Bretylol] | 114% |
| CCN(CC)CCOC(=O)c1ccc(N)cc1 [procaine] | 105% |
| CO/N=C(\C(=O)N[C@@H]1C(=O)N2C(C(=O)O)=C(/C=C\c3scnc3C)CS[C@H]12)c1csc(N)n1 [Cefditoren] | 94.3% |
| C1CCN2C[C@H]3C[C@H](CN4CCCC[C@@H]34)[C@H]2C1 | 84.5% |
| CC[C@@H]1C(=O)OC[C@@H]1Cc1cncn1C | 118% |
| Cc1nc(-c2ccc(OCC(C)C)c(C#N)c2)sc1C(=O)O [febuxostat] | 109% |
| CC(C)(C)NCC(O)COc1cccc2c1C[C@H](O)[C@H](O)C2 (stereo not given in full) | 89% |
| CCCCN1C[C@H](O)[C@@H](O)[C@H](O)[C@H]1CO [miglustat] | 94.3% |
| CC(Cc1ccccc1)NN (stereo not given) [pheniprazine] | 77.2% |
| COc1ccc(CC(C)NCC(O)c2ccc(O)c(NC=O)c2)cc1 (stereo not given) [formoterol] | 91.7% and 79.7% |
| CC1COc2c(N3CCN(C)CC3)c(F)cc3c(=O)c(C(=O)O)cn1c23 (stereo not given) [ofloxacin] | 90.8% and 86.2% |
| Nc1nc2c(ncn2COCCO)c(=O)[nH]1 [Acycloguanosine] | 49.4% |
| COC(=O)N/N=C/c1c[n+]([O-])c2ccccc2[n+]1[O-] [Carbadox] | 113% |
| O=C(Nc1ncc([N+](=O)[O-])s1)c1cccs1 [tenonitrozole] | 61.1% |
| COC(=O)Nc1nc2cc(OS(=O)(=O)c3ccc(F)cc3)ccc2[nH]1 [luxabendazole] | 70.4% |
| OC(CNC12CC3CC(CC(C3)C1)C2)COc1ccccc1 (stereo not given) [mantabegron] | 78.2% |
| O=C([O-])c1ccccc1[O-].[Bi+3].[OH-] | 68.6% |
| c1ccc(Cn2c(N3CCNCC3)nc3ccccc32)cc1 [lerisetron] | 69.8% |
| CC(=O)Nc1ccc(OC(=O)c2ccccc2OC(C)=O)cc1 [benorilate] | 98.9% |
| O=C1O[C@H]([C@@H](O)CO)C(O)=C1O | 96.1% |
